Values from PubChem BioAssay AID1159578 (Peter MacCallum Cancer Centre, 2015)
The deposit covers about 18,000 reagents; shown is a part drawn at random. About 1,030 of all reagents (5.7%) count as active. 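Inactive calls also include pools with fewer than 3300 nuclei, whose migration was not assessed.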 The raw values are shown without normalisation.

Purpose: 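Genome-wide hunt for genes controlling movement of lymphatic endothelial cells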 (primary screen)
System: human lymphatic endothelial cells
Reagents: siRNA pool against human genes, 40 nM
Timing: 48 h after transfection
Measured: 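Cells stained with dye and imaged after a scratch; covered wound area and nuclei counted, duplicates averaged, migration set against mock wells and turned into a robust z-score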
Reading the numbers: migration robust z-score: higher = faster migration into the scratch; migration relative to mock: higher = more scratch area covered than mock; nuclei per well: higher = more cells in the well
Hit rule: 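Migration changed when robust z exceeds 2 or falls below -2 and mean nuclei number is at least 3300; otherwise not called changed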
Calls: active = migration changed; inactive = no migration change, or too few cells

no.	Target gene	migration robust z-score	migration class with cell-count check	migration relative to mock	nuclei per well, duplicate mean	outcome
1	SELENOT	1.66	migration z between -2 and 2; enough cells	1.31	6382	inactive
2	ARRDC1	-1.34	migration z between -2 and 2; enough cells	0.53	6547	inactive
3	GPAT3	0.21	migration z between -2 and 2; enough cells	0.84	5620	inactive
4	PTAFR	1.12	migration z between -2 and 2; enough cells	1.02	6032	inactive
5	ATP11B	0.24	migration z between -2 and 2; enough cells	0.85	5720	inactive
6	ZCCHC17	1.24	migration z between -2 and 2; enough cells	1.2	5524	inactive
7	DCTN2	0.32	migration z between -2 and 2; enough cells	0.97	6942	inactive
8	ZNF225	1.19	migration z between -2 and 2; enough cells	1.2	4806	inactive
9	PHF8	0.8	migration z between -2 and 2; enough cells	0.96	6428	inactive
10	EAF1	-0.36	migration z between -2 and 2; enough cells	0.8	3717	inactive
11	TWNK	0.21	migration z between -2 and 2; enough cells	0.84	6016	inactive
12	PRPF39	0.52	migration z between -2 and 2; enough cells	1.02	6565	inactive
13	CEPT1	-2.67	migration z below -2; enough cells	0.29	3361	active
14	KPRP	-1.07	migration z between -2 and 2; enough cells	0.61	5898	inactive
15	FMO3	0.62	migration z between -2 and 2; enough cells	0.92	5628	inactive
16	MT1X	1.05	migration z between -2 and 2; enough cells	1.16	5816	inactive
17	CELF2	-0.52	migration z between -2 and 2; enough cells	0.75	5028	inactive
18	CLEC2L	0.24	migration z between -2 and 2; enough cells	0.94	6108	inactive
19	DPEP1	-0.54	migration z between -2 and 2; enough cells	0.7	5174	inactive
20	BLOC1S5	-0.4	migration z between -2 and 2; enough cells	0.78	4042	inactive
21	HSPB1	0.28	migration z between -2 and 2; enough cells	0.96	4904	inactive
22	GSTO1	0.08	migration z between -2 and 2; enough cells	0.82	4488	inactive
23	ZBTB25	0.3	migration z between -2 and 2; enough cells	0.96	6228	inactive
24	COIL	0.39	migration z between -2 and 2; enough cells	0.98	6923	inactive
25	DAZ1	0.1	migration z between -2 and 2; enough cells	0.82	4860	inactive
26	CINP	0.79	migration z between -2 and 2; enough cells	1.09	6134	inactive
27	MAP3K10	1.53	migration z between -2 and 2; enough cells	1.1	5264	inactive
28	XAGE1B	0.8	migration z between -2 and 2; enough cells	1.09	6460	inactive
29	ARLN	-0.47	migration z between -2 and 2; enough cells	0.76	3647	inactive
30	SELENOI	-1.73	migration z between -2 and 2; enough cells	0.47	5900	inactive
31	PRSS8	-0.54	migration z between -2 and 2; enough cells	0.7	4670	inactive
32	ZNF407	-0.5	migration z between -2 and 2; enough cells	0.76	4552	inactive
33	TRIM28	-1.32	migration z between -2 and 2; enough cells	0.55	5444	inactive
34	CLGN	-0.36	migration z between -2 and 2; enough cells	0.74	6137	inactive
35	SDS	-0.18	migration z between -2 and 2; enough cells	0.77	4683	inactive
36	MYCBP	-0.67	migration z between -2 and 2; enough cells	0.68	5961	inactive
37	ZNF436-AS1	0.08	migration z between -2 and 2; enough cells	0.9	5789	inactive
38	NELL1	0.34	migration z between -2 and 2; enough cells	0.87	7034	inactive
39	PRKG2	-3.27	migration z below -2; enough cells	0.18	4404	active
40	ABRAXAS2	0.4	migration z between -2 and 2; enough cells	0.99	7192	inactive
41	CTAG1B	-0.05	migration z between -2 and 2; enough cells	0.88	6190	inactive
42	APOLD1	-0.75	migration z between -2 and 2; enough cells	0.69	4526	inactive
43	RFNG	0.57	migration z between -2 and 2; enough cells	0.92	4766	inactive
44	WDR93	0.76	migration z between -2 and 2; enough cells	1.08	4100	inactive
45	PABIR1	0.5	migration z between -2 and 2; enough cells	1.02	7380	inactive
46	NEXMIF	-3.49	migration z below -2; enough cells	-0.02	3583	active
47	LNX2	0.75	migration z between -2 and 2; enough cells	0.95	6590	inactive
48	GFI1B	-0.37	migration z between -2 and 2; enough cells	0.79	5668	inactive
49	COX5A	-0.9	migration z between -2 and 2; enough cells	0.66	5890	inactive
50	CANT1	0.6	migration z between -2 and 2; enough cells	0.92	6368	inactive
51	FLJ46838 (retired record)	0.09	migration z between -2 and 2; enough cells	0.91	7019	inactive
52	ADRA2B	0.8	migration z between -2 and 2; enough cells	0.96	5936	inactive
53	PLSCR3	-0.88	migration z between -2 and 2; enough cells	0.64	4348	inactive
54	AVL9	0.4	migration z between -2 and 2; enough cells	0.98	5196	inactive
55	SLC35F2	0.48	migration z between -2 and 2; enough cells	1.01	6647	inactive
56	SIKE1	-0.41	migration z between -2 and 2; enough cells	0.78	6140	inactive
57	OSR1	0.85	migration z between -2 and 2; enough cells	1.1	5484	inactive

Targets above whose gene name starts with A or a (7):
Target gene	migration robust z-score	migration class with cell-count check	migration relative to mock	nuclei per well, duplicate mean	outcome
ARRDC1	-1.34	migration z between -2 and 2; enough cells	0.53	6547	inactive
ATP11B	0.24	migration z between -2 and 2; enough cells	0.85	5720	inactive
ARLN	-0.47	migration z between -2 and 2; enough cells	0.76	3647	inactive
ABRAXAS2	0.4	migration z between -2 and 2; enough cells	0.99	7192	inactive
APOLD1	-0.75	migration z between -2 and 2; enough cells	0.69	4526	inactive
ADRA2B	0.8	migration z between -2 and 2; enough cells	0.96	5936	inactive
AVL9	0.4	migration z between -2 and 2; enough cells	0.98	5196	inactive
